Experimental data: publication PMC3079718
No constants are given. Whether binding was seen depends on the method and setting. Some binding calls cover weakened binding; strength is not graded here. Tags and fused reporters may be left off the sequences shown.

Assays:
Test in all cases: two-hybrid; bait in pGBKT7, prey in pGADT7-Rec, co-transformed into yeast strain AH109; quantitative beta-galactosidase activity of the colonies
[1] = target: T1, pGBK-AtGILPC (C-terminal domain of AtGILP fused to the DNA binding domain of GAL4) (Arabidopsis thaliana) (UniProt Q94CD4)
T1 sequence: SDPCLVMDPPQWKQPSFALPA

[2] = target: T2, pGBK-AtGILPN (N-terminal domain of AtGILP fused to the DNA binding domain of GAL4) (Arabidopsis thaliana) (UniProt Q94CD4)
T2 sequence: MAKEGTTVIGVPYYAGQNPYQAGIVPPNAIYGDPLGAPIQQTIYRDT

[3] = target: T3, pGBK-AtGILP (AtGILP fused to the DNA binding domain of GAL4) (Arabidopsis thaliana) (UniProt Q94CD4)
T3 sequence: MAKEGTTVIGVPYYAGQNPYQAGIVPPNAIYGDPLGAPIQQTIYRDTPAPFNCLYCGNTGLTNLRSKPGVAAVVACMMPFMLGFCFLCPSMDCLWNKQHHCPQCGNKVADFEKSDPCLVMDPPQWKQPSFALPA

Measured: binding

B1: pGAD-AtPILP1 (Arabidopsis thaliana Pirh2-like protein 1 in the prey vector pGADT7-Rec) (protein, UniProt Q8VZK0 1-267)
chain: MEASPNDRLHFGKMGFGCKHYKRRCQIRAPCCNEVFDCRHCHNESTSTLRNIYDRHDLVRQDVKQVICSVCDTEQPAAQVCSNCGVNMGEYFCSICIFYDDDTEKQQFHCDDCGICRVGGRENFFHCKKCGSCYAVGLRNNHRCVENSMRHHCPICYEYLFDSLKDTNVMKCGHTMHVECYNEMIKRDKFCCPICSRSVIDMSKTWQRLDEEIEATAMPSDYRDKKVWILCNDCNDTTEVHFHIIGQKCGHCRSYNTRAIAPPVLPQ
binds: [1] | [2] | [3]
